Laboratory results published in US9918972B2, “Treatment of leukemia with artemisinin derivatives and combinations with other antineoplastic agents” (UNIVERSITY OF MARYLAND, BALTIMORE, priority 2014, dated 2018).
For at least one compound, name, drawing or mass did not settle the structure.

Tests used:
Assay type in all cases: cell-based, human
MOLM14 cells [1] = assay: Combinations of AS, ART-838 or DHA with BCL-2 inhibitors, alamarBlue, 48 h; conditions: DHA 500 nM and 1 μM
Experimental: FIGS. 11A-11C. Antileukemic efficacy of ABT-199, ABT-263 or ABT-737 combined with AS or ART-838. […] Each experiment was performed in triplicate.
FIG. 12. […] MOLM14 cells were treated with increasing concentrations of ABT-199, ABT-263 or ABT-737 without or with DHA (500 nM and 1 μM) for 48hrs. Then cytotoxicity was evaluated by alamarBlue assays. Each experiment was performed in triplicate.
MOLM14 or KOPN8 cells were seeded in 96-well plates as described above for alamarBlue assays. Cells were treated with a certain concentrations of AS, or ART-838 or DHA, in combination with a range of concentrations of ABT-199 or ABT-263 or ABT-737. AlamarBlue assays were performed as described above. Each set of drugs or drug combinations was tested in triplicate. Chou-Talalay drug combination analysis was performed as above.

MOLM14 cells [2] = assay: Sequence-of-administration drug combination, 72 h, alamarBlue; conditions: 2.25x IC50s
MOLM14 cells [3] = assay: ROS - mitochondrial superoxide (MitoSOX flow cytometry); conditions: 16 h; for effect on AS-induced superoxide generation: MOLM14, combined with AS, 2.25x IC50s
Experimental: FIGS. 4A-4D. […] CIs were computed as described above. CI<1 indicates synergy, CI=1, additivity, CI>1, antagonism. […] Cells were then loaded with 5 μM MitoSox for 30 min, washed, and analyzed by flow cytometry for MitoSox fluorescence (indicating mitochondrial superoxide) in the FL2 channel. […] Error bars represent the SEM of three independent experiments.

| Compound | sensitivity of MOLM14 cells to ABT-199 (MOLM14 cells [1]) | Combination index (CI), interaction (MOLM14 cells [2]; MOLM14, kinase inhibitor before AS, 72 h) | Combination index (CI), interaction (MOLM14 cells [2]; MOLM14, simultaneous treatment with AS, 72 h experiment) | effect on AS-induced superoxide generation (MOLM14 cells [3]) | effect on ART-838-induced superoxide generation (MOLM14 cells [3]; MOLM14, combined with ART-838, 2.25x IC50s) |
| --- | --- | --- | --- | --- | --- |
| C[C@H]1[C@@H](O)O[C@@H]2O[C@@]3(C)CC[C@H]4[C@H](C)CC[C@@H]1[C@@]24OO3 [DHA, dihydroartemisinin] | increased the sensitivity | – | – | – | – |
| C[C@]12O[C@H](C[C@]1(O)CO)n1c3ccccc3c3c4c(c5c6ccccc6n2c5c31)CNC4=O [LES, lestaurtinib] | – | mild antagonism | slightly less effective | reduced | – |
| CO[C@@H]1[C@H](N(C)C(=O)c2ccccc2)C[C@H]2O[C@]1(C)n1c3ccccc3c3c4c(c5c6ccccc6n2c5c31)C(=O)NC4 [MID, midostaurin] | – | – | – | reduced | reduced |
